Drawing on PubChem BioAssay AID2685 (National Center for Advancing Translational Sciences (NCATS), 2010), this text covers AC50 and cell number change for 40 compounds.

This test can be described thus: qHTS Assay for Lipid Storage Modulators in Drosophila S3 Cells.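 As to cell number change: cells counted by Cell Tracker Red CMTPX staining in the red channel.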 As to conditions: BODIPY lipid droplet fluorescence, 18-24 h; for cell number change: measured here: cell count max response, cells fed with added oleic acid. An outline of the steps: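 Drosophila S3 cells got compounds at several concentrations plus oleic acid (400 uM solution). Laser-scanning cytometry with 488 nm excitation read lipid droplets at 500-530 nm and cells at 575-640 nm. Percent activity was relative to 20 uM Triacsin C.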
For orientation: In qHTS, concentration-response curves come from the screen itself.

The mark [1] stands for this setting: measured here: lipid fluorescence (Fed channel) AC50, cells fed with added oleic acid.
Setting [2] is: measured here: cell number channel AC50, cells fed with added oleic acid.

The other results are listed elsewhere or left out. Further columns of the screen follow, without active or inactive calls. Compounds called inactive in the main read-out are mostly missing here. Potencies come from curve fits of mixed quality, noted in brackets.

For `CCOc1ccc(OCCC(=O)N(CC)CC(=O)Nc2ccccc2C(F)(F)F)cc1`, the half-maximal activity concentration (AC50) (as a rule, the midpoint of the concentration-response curve, whichever way the signal moves) under setting [1] was 29.1 µM [rising, single point].

Regarding `COc1ccc(Br)cc1-c1nc(C)c(C(C)=O)n1O`, the cell number change is -1.6%.

In the case of `CC(C)Cn1nnc2c(=O)oc3ccccc3c21`, the cell number change was -0.862%. Further, the concentration at half-maximal activity (AC50) under setting [1] is 0.00411 µM [falling, full curve, poor fit].

Regarding `O=C(NNC(=O)C(O)(c1ccccc1)c1ccccc1)C1CC1`, the cell number change is -28.2%.

Turning to `Cc1cc(C)c(C)c(S(=O)(=O)NCc2ccc(C(=O)NCC3CCCO3)cc2)c1C` (stereo not drawn), the cell number change was -54.3%. The AC50 under setting [2] was 2.06 µM [falling, full curve]. Moreover, under setting [1], the AC50 is 0.58 µM [falling, full curve].

Regarding `CSCCC1NC2(C(=O)Nc3c(Cl)cccc32)[C@@H]2C(=O)N(C3CCCC3)C(=O)[C@H]12` (stereo partly drawn), the cell number change amounted to 10.4%. Besides, under setting [1], the AC50 is 1.84 µM [rising, partial curve, poor fit].

Regarding `CC(=O)N1c2ccc(S(=O)(=O)N(C)CC(=O)Nc3ccccc3C)cc2CC1C` (stereo not drawn), the cell number change was 35.6%. The AC50 under setting [2] is 29.1 µM [rising, single point].

With `Cc1cc(C(=O)OCC(=O)Nc2ccc(F)c(F)c2)c(C)o1`, the cell number change was determined as 64.5%. Moreover, under setting [2], the AC50 is 29.1 µM [rising, single point].

Take `CCOC(=O)C1(Cc2cccc(OC)c2)CCCN(C(=O)c2cc(C)oc2C)C1` (stereo not drawn): the cell number change is 25.4%. Also, the concentration at half-maximal activity (AC50) under setting [1] is 6.51 µM [rising, single point].

Take `COc1ccccc1-c1c(C)oc2c(CN3CCN(CCO)CC3)c(O)ccc2c1=O`: the cell number change was -4.04%.

Take `COc1ccccc1NC(=O)Cc1nc(CCl)cs1`: the cell number change came to 54.9%. Besides, under setting [2], the half-maximal activity concentration (AC50) is 14.6 µM [rising, partial curve, poor fit]. Besides, the AC50 under setting [1] was 23.1 µM [rising, partial curve].

Turning to `C/C(=N\NC(=O)c1ccccc1F)c1ccc2c(c1)Nc1ccccc1S2`, the cell number change was -30.8%. For the same compound, under setting [2], the AC50 is 14.6 µM [falling, partial curve]. The AC50 under setting [1] is 16.4 µM [falling, partial curve, poor fit].

Consider `COc1cccc(C2c3[nH]c4ccccc4c3CCN2C(=O)c2ccccc2F)c1OC` (stereo not drawn), for which the cell number change was -4.99%. The AC50 under setting [1] was 20.6 µM [rising, single point].

For `CCOc1ccccc1NC(=O)c1cnc2n(c1=O)CCS2`, the cell number change is -15%.

Turning to `CN(C)S(=O)(=O)c1ccc(N2CCCC2)c(C(=O)OCC(=O)NC2(C#N)CCCCC2)c1`, the cell number change came out at 27.1%. For the same compound, under setting [1], the half-maximal activity concentration (AC50) is 29.1 µM [rising, single point].

For the compound `Cc1ccc2nc(NC(=O)C(NS(=O)(=O)c3cccc4nsnc34)C(C)C)sc2c1` (stereo not drawn), the cell number change was -29.1%. Further, the half-maximal activity concentration (AC50) under setting [1] is 7.31 µM [falling, partial curve, poor fit].

For `CCOC(=O)C1=NN(C(=O)Nc2cccc(C(F)(F)F)c2)C2C(=O)N(c3cccc(C(F)(F)F)c3)C(=O)C12` (stereo not drawn), the cell number change is -72%. Besides, the AC50 under setting [2] was 23.1 µM [falling, partial curve]. The AC50 under setting [1] is 23.1 µM [falling, partial curve].

For `Cc1oc(C(=O)O)cc1COc1ccc2c3c(c(=O)oc2c1C)CCC3`, the cell number change was determined as 0.0477%.

As for `CCOc1ccc(OCCC(=O)N(CCC(C)C)c2c(N)n(Cc3ccccc3)c(=O)[nH]c2=O)cc1`, the cell number change was found to be 8.79%. Also, under setting [2], the concentration at half-maximal activity (AC50) was 0.0651 µM [falling, full curve, poor fit].

For `Cc1ccnc(NC(=O)CCC(=O)N(CC(=O)NCCc2ccccc2)Cc2cccs2)c1`, the cell number change was -48.4%. Also, the AC50 under setting [2] was 18.4 µM [falling, single point]. Also, the half-maximal activity concentration (AC50) under setting [1] is 16.4 µM [falling, single point].

On to `CCC(O)(CC)C(=O)N=Nc1c(O)[nH]c2ccccc12`, for which the cell number change came to 10.3%. Also, the concentration at half-maximal activity (AC50) under setting [2] was 0.651 µM [falling, partial curve]. Moreover, under setting [1], the concentration at half-maximal activity (AC50) was 6.51 µM [falling, partial curve, poor fit].

On to `O=c1[nH]c(N/N=C/c2cc3c(cc2[N+](=O)[O-])OCO3)nc2ccccc12`, for which the cell number change worked out at 17%. Moreover, under setting [1], the AC50 is 0.58 µM [rising, full curve, poor fit].

For the compound `O=C(Cc1ccccc1)Nc1nc(-c2ccc(F)c(F)c2)cs1`, the cell number change is 179%. For the same compound, the AC50 under setting [2] is 20.6 µM [rising, partial curve].

Consider `Cc1ccc(C(C)C)c(OCCNC(=O)c2ccccc2O)c1`, for which the cell number change is -10.1%. Besides, the AC50 under setting [1] was 29.1 µM [falling, single point].

With `COc1ccc(CNC(=O)c2ccccc2SC)cc1`, the cell number change is 14.8%.

As to `Oc1ccc(CCNc2ncnc3ccc(Cl)cc23)cc1`, the cell number change was -8.38%. For the same compound, the AC50 under setting [1] was 3.66 µM [falling, full curve].

In the case of `Cc1cc2oc3c(c(=O)c2cc1C)C(c1cccc(Br)c1)N(Cc1ccco1)C3=O` (stereo not drawn), the cell number change stood at 1.13%. Moreover, the AC50 under setting [1] was 1.3 µM [rising, full curve, poor fit].

As for `Cc1cccc(-c2sc(Nc3ccccc3)n[n+]2-c2ccc(F)cc2)c1`, the cell number change was found to be 32.7%. The AC50 under setting [1] was 29.1 µM [rising, single point].

As for `COc1ccc(/C=N/NC(=O)CN2CCCC2)cc1`, the cell number change amounted to 11.3%. Besides, the half-maximal activity concentration (AC50) under setting [1] was 23.1 µM [falling, single point].

With `COc1cc(OC)c(NC(=O)c2sc3ncn(CC(=O)N4CCN(c5ccccn5)CC4)c(=O)c3c2C)cc1Cl`, the cell number change was determined as 0.943%. Moreover, the AC50 under setting [1] is 29.1 µM [rising, single point].

With `O=C(COC(=O)c1cc(S(=O)(=O)N2CCOCC2)c(Cl)cc1Cl)NC1CC1`, the cell number change was -19.7%. The AC50 under setting [1] is 0.82 µM [rising, full curve, poor fit].

For `CCCC1=Nc2cc(C(=O)NCCN3CCCC3)ccc2Sc2ccccc21`, the cell number change turned out to be 14.6%.

For `O=C(/C=C/c1cccc([N+](=O)[O-])c1)NCCSc1ccccc1`, the cell number change was -9.28%.

With `CC1=C(C(=O)OCC2CCCO2)C(c2ccc(F)cc2)NC(=O)N1` (stereo not drawn), the cell number change is -3.24%.

For `CCCC(=O)OC(C(=O)Nc1cc(C(F)(F)F)ccc1Cl)c1ccccc1` (stereo not drawn), the cell number change was determined as 3.68%. Under setting [1], the AC50 was 25.9 µM [rising, single point].

As for `Cc1cc(=O)oc2c(C)c(OC(C)C(=O)N3CC[C@@]4(O)CCCC[C@H]4C3)ccc12` (stereo partly drawn), the AC50 under setting [1] is 0.00517 µM [falling, full curve, poor fit].

`CCC(C)N1CCN(S(=O)(=O)c2ccc3ccccc3c2)CC1` (stereo not drawn): the cell number change was found to be 18.8%. Further, the AC50 under setting [1] was 14.6 µM [rising, single point].

Consider `CCN1CCN(C(CNS(=O)(=O)c2cccs2)c2cccnc2)CC1` (stereo not drawn), for which the cell number change stood at 6.01%.

In the case of `O=S(=O)(NC1CC1)c1cccc(S(=O)(=O)N2CCCC2)c1`, the cell number change was found to be 32.3%.

In the case of `CC(C)(C)c1ccc(OC(=O)Nc2ccc(O)c(C(=O)O)c2)cc1`, the cell number change is 0.49%. The concentration at half-maximal activity (AC50) under setting [1] is 25.9 µM [rising, single point].
